According to paper PMC9537123:
These are yes or no findings as the source states them, for the method shown. Binding seen in cells or lysates may run through a third protein. Some results given as binding are weak or reduced against the parent protein; the word gives no strength.

By UniProt entry, the sequences of proteins in these tests, tags left out.
UniProt Q08369: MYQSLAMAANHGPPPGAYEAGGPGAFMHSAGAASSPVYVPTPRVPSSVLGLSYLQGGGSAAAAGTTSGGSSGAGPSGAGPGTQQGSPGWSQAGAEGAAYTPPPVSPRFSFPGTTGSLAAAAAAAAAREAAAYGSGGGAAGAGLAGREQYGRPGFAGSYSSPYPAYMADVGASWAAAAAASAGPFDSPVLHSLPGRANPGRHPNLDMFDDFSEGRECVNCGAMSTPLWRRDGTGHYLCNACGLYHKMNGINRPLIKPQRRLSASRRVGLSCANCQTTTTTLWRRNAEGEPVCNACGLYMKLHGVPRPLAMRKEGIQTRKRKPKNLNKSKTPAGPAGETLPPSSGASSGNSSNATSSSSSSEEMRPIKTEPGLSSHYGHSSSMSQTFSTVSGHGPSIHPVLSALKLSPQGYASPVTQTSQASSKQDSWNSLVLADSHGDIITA
UniProt Q00403: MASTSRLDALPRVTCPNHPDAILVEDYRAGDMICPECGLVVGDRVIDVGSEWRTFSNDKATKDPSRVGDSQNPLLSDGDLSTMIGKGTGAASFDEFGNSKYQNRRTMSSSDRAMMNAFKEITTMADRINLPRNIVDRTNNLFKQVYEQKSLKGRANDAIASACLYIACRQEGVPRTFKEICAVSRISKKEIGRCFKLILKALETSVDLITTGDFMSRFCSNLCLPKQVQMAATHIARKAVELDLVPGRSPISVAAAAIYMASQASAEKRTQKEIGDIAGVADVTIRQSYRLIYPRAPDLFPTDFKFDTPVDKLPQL

Target: GATA-4-mCherry fusion protein (mouse) (UniProt Q08369)
Assay: co-IP; nuclear fraction of sorted GFP-h-Muse cells 8 h after incubation with apoptotic GATA-4-mCherry reporter m-HL-1 fragments; anti-mCherry antibody and Dynabeads protein G overnight at 4 °C; washed six times in 10 mM Tris-HCl pH 8.0, 100 mM NaCl, 2 mM EDTA, 0.01% NP-40; Western blot; normal IgG as negative control

binding: binds
Substance: transcription factor II B (from UniProt Q00403 1-316)
